Drawing on patent publication US20050137807A1, “Method of visualization of the ADME properties of chemical substances” (priority 2003, published 2005), this text covers LogHSA and LogMA for two compounds.

By UniProt entry, the sequences of proteins in these tests, tags left out. Residues count along the entry.
UniProt P02768, 25-609: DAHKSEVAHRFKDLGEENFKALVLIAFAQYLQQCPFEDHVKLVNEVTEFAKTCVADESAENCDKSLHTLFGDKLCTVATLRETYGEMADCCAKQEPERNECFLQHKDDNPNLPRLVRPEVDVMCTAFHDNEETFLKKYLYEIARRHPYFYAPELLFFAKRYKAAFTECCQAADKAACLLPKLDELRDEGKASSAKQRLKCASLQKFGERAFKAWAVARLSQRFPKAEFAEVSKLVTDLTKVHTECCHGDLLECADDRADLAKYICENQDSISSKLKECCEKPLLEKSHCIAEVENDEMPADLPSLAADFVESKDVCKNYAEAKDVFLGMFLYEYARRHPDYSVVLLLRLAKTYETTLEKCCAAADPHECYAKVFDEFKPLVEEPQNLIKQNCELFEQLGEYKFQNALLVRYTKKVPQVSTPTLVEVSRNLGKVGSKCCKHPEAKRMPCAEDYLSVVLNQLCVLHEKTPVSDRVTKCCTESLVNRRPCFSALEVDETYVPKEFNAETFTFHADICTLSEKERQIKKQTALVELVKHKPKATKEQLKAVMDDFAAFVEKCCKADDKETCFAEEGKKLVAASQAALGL

For one data set, the target named is human serum albumin (Homo sapiens, UniProt P02768). Put plainly: binding constant to human serum albumin (TRANSIL technology). Conditions: log binding constant to human serum albumin. The source says:
The effective molecular weight (MW) is obtained simply from the respective empirical formula of the substance. The waters solubilities and the typical administered dosages of these commercially available products are furthermore known from the literature.
The ADME maps in FIGS. 5 to 10 show by way of example a selection of commercially available pharmaceutical substances. The substance names and the associated experimental measurement values for their physicochemical properties are summarised in Table 1.

Data set [1] can be described thus: membrane affinity as a measure of the lipophilicity (TRANSIL technology). It counts as physicochemical.

The structures appear in SMILES notation.

In the case of `COC(=O)C1=C(C)NC(C)=C(C(=O)OC)C1c1ccccc1[N+](=O)[O-]` [Nifedipine], the LogHSA at human serum albumin is reported as −4.912. In turn, `CCn1cc(C(=O)O)c(=O)c2cc(F)c(N3CCN(C)CC3)cc21` [Pefloxacin] had a LogMA in data set [1] of 1.519.
